In the assay the target is desmoplakin (human (endogenous in HaCaT)) (UniProt P15924). As to the kind of experiment: affinity purification with mass spectrometry.

Chains of the proteins cited; added tags and fusions are not shown.
UniProt P15924: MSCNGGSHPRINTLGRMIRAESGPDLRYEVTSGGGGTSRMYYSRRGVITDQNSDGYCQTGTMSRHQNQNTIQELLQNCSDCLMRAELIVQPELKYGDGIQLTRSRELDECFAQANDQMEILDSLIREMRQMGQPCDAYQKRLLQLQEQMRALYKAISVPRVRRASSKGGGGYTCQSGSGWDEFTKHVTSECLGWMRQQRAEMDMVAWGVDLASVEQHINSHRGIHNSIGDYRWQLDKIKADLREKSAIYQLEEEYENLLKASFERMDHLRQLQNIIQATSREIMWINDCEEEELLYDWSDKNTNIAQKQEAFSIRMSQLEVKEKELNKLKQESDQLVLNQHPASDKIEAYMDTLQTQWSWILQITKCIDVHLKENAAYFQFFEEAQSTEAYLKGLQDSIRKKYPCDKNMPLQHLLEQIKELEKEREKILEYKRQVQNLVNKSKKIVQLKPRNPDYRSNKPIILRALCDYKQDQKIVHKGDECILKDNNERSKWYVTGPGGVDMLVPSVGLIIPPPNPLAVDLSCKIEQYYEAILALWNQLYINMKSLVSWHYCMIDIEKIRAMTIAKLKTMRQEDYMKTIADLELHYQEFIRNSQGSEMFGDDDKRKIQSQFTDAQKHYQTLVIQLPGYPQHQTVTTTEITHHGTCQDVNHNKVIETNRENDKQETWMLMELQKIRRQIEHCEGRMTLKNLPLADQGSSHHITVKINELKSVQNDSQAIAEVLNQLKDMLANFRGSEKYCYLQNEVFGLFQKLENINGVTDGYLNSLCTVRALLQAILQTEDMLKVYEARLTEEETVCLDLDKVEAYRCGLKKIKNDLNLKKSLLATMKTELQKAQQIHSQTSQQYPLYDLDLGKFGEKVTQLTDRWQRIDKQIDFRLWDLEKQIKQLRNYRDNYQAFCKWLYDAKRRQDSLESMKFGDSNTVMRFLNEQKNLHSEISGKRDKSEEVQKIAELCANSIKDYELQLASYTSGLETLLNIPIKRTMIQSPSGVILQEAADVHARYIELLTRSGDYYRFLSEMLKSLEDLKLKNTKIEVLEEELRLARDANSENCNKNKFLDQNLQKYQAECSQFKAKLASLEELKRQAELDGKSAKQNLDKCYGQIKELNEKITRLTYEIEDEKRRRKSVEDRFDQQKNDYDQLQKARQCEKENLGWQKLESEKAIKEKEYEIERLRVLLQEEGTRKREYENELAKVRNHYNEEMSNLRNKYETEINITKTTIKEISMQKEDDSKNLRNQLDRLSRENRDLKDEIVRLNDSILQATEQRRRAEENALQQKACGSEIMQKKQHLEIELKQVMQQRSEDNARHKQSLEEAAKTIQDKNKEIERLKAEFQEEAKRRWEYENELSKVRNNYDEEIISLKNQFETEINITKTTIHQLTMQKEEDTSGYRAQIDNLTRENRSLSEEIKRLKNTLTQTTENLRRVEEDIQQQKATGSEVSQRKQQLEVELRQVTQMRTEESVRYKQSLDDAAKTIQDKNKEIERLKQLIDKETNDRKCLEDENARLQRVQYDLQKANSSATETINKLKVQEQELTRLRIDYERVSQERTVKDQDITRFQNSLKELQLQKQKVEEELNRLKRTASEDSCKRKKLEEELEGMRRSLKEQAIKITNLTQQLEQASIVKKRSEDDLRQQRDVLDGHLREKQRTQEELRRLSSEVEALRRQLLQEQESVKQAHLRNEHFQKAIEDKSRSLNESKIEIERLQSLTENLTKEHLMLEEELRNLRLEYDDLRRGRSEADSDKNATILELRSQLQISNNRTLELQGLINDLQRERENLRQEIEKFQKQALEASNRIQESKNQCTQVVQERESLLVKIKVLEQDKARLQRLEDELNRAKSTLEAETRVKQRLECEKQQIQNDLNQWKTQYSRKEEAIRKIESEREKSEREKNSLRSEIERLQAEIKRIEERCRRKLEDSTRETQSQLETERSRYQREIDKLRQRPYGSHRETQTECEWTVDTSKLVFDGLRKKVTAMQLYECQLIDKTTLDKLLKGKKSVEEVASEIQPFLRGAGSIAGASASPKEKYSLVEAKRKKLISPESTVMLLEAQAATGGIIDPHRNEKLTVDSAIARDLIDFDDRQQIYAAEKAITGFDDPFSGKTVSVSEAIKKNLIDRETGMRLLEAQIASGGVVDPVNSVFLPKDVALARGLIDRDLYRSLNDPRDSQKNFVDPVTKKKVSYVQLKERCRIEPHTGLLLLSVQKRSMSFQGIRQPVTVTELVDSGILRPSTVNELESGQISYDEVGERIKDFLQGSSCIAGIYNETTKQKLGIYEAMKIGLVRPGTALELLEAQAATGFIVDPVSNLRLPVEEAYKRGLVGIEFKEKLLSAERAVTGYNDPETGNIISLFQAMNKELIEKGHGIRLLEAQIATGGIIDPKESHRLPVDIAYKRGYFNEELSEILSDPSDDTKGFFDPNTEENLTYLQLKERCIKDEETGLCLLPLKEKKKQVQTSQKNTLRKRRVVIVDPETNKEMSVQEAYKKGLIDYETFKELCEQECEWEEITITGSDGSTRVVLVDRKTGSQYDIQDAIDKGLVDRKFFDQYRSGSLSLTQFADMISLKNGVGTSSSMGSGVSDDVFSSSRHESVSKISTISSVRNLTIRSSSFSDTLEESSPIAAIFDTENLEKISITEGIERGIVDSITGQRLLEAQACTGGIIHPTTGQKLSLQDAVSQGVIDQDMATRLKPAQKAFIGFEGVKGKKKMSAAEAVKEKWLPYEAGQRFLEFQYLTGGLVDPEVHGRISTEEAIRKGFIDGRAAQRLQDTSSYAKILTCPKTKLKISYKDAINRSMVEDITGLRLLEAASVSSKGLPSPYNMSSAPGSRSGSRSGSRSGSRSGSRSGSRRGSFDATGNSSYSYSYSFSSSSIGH

No constants are given. Whether binding was seen depends on the method and setting. Binding seen in cells or lysates may run through a third protein. A yes stands for co-enrichment or nearness to the bait. Other partners may have been found.

B1: SERPINB5 (protein, UniProt P36952 1-375)
chain: MDALQLANSAFAVDLFKQLCEKEPLGNVLFSPICLSTSLSLAQVGAKGDTANEIGQVLHFENVKDVPFGFQTVTSDVNKLSSFYSLKLIKRLYVDKSLNLSTEFISSTKRPYAKELETVDFKDKLEETKGQINNSIKDLTDGHFENILADNSVNDQTKILVVNAAYFVGKWMKKFSESETKECPFRVNKTDTKPVQMMNMEATFCMGNIDSINCKIIELPFQNKHLSMFILLPKDVEDESTGLEKIEKQLNSESLSQWTNPSTMANAKVKLSIPKFKVEKMIDPKACLENLGLKHIFSEDTSDFSGMSETKGVALSNVIHKVCLEITEDGGDSIEVPGARILQHKDELNADHPFIYIIRHNKTRNIIFFGKFCSP
For B1, the binding entry is on record as “binds”.
